This is one part of the list.

The chains behind the UniProt entries cited, without tags or fusion partners.
UniProt Q0JBA9, entry or part of it: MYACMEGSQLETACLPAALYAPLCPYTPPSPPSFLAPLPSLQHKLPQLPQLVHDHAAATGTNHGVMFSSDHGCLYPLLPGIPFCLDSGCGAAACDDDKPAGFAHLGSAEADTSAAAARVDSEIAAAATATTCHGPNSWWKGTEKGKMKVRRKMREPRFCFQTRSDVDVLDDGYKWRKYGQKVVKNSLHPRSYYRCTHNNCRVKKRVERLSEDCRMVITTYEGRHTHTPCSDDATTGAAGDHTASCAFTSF

For the assay, the target named is OsWRKY34 (Oryza sativa, UniProt Q0JBA9 1-250). As to the kind of experiment: protein-binding microarray (RPBM); PBS, 2% BSA, 51.3 ng/ul salmon testes DNA, 50 uM zinc acetate, 200 nM TF, 25 C, 1 h; high values mean tight binding. As to conditions: protein: recombinant; tags: N-terminal polyhistidine and DsRed monomer fusion (pET32a); label: CyDye5-dUTP incorporated in the synthesized complementary strand; 3' TTTTT single-stranded linker to array surface; dsDNA, one strand shown. The method, boiled down: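 Using Ni–NTA, transcription factors fused N-terminally to polyhistidine and DsRed were purified after expression in E. coli BL21-CodonPlus. These were incubated at 200 nM with a blocked, double-stranded custom Agilent array for 1 h at 25 °C in a buffer containing 50 µM zinc acetate, and the array was washed. The binding signal is per-feature fluorescence intensity (arbitrary units) on an Axon 4000B scanner.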
As to “CGCCGCCTGCACCACCCTACCGGCCACTTCCACTGCCAATCGGAGTCACCTAGTGCAG”, the binding signal is 8440 fluorescence intensity (a.u.).
With “CCGCCGCTGAGACGTTTTATTCATCGCTGCCATCAACCAACGGAGTCACCTAGTGCAG”, the binding signal is 8140 fluorescence intensity (a.u.).
Take “GTGTTTGGTTGCGTGCCGCAATTGAGTCAATCCACACTTTCGGAGTCACCTAGTGCAG”: the binding signal was 8420 fluorescence intensity (a.u.).
The result for “ATATTATAGTGAGGGGTGGGAGGAACCTGTTCCCGCTGCTCGGAGTCACCTAGTGCAG” reads 11700 fluorescence intensity (a.u.); that for “TTCACATCTACACTTTCTTTATGTTGGTTATTTATACTATCGGAGTCACCTAGTGCAG”, 11800 fluorescence intensity (a.u.).
For the sequence “AGGCGGCGCATGGCGCGGCGCGGCGTGGGGTGGGGTGGGGCGGAGTCACCTAGTGCAG”, the binding signal is 14400 fluorescence intensity (a.u.).
Under “GCCGCATCCCGCCGCCGCCGCCTCTGACCCCGCGCGGCGGCGGAGTCACCTAGTGCAG” stands 8770 fluorescence intensity (a.u.); under “ATTATAGTATTAGTGTGGTGTGGTGTGTTGTTTATGCAATCGGAGTCACCTAGTGCAG”, 8790 fluorescence intensity (a.u.); under “AATTGTATATCTTTTTGAAACCAAGAGTGCCAACTTTTCACGGAGTCACCTAGTGCAG”, 8610 fluorescence intensity (a.u.).
For “TCATTGCTTTACTTGCATTTACTATTTATTTTTTTCTAAGCGGAGTCACCTAGTGCAG”, the binding signal is 8990 fluorescence intensity (a.u.).
Turning to “CGGGATCCGTTTTGTAGCAGTCCTCTTAATTAATTTACCGCGGAGTCACCTAGTGCAG”, the binding signal was 9390 fluorescence intensity (a.u.).
Turning to “CTTTCATTAACCGTAATTCGTCATTTACATTGTGATCACACGGAGTCACCTAGTGCAG”, the binding signal is 9030 fluorescence intensity (a.u.).
The result for “ACCATCCGCTTCTTCTCCAAACGCCCACGCGCTTCTCACCCGGAGTCACCTAGTGCAG” reads 8960 fluorescence intensity (a.u.); that for “ACCTCAGCCACACTCCCAGGCTTCGCCTTCCGGAAGCTTCCGGAGTCACCTAGTGCAG”, 8540 fluorescence intensity (a.u.).
With “GTGGGAGGCCGCAACAGCCAATCTCGCCTCTTTGCGCTTTCGGAGTCACCTAGTGCAG”, the binding signal is 8130 fluorescence intensity (a.u.).
As for “ATTTTATTTTAAAAATATTTTAAACTCCTTTTTGATTTTACGGAGTCACCTAGTGCAG”, the binding signal was 8430 fluorescence intensity (a.u.).
Regarding “TGGGAATGGATCAGTAGACTGTTGGTGATGCTCAATTTACCGGAGTCACCTAGTGCAG”, the binding signal was 8230 fluorescence intensity (a.u.).
Consider “AACTTTTCCATCACATCGTTCTAATTTCTTCAAACTTCCACGGAGTCACCTAGTGCAG”, for which the binding signal is 9580 fluorescence intensity (a.u.).
On to “CAATCCGGACCATATAAGTGTTTTCCTTTTTTAATTCTTTCGGAGTCACCTAGTGCAG”, for which the binding signal was 11300 fluorescence intensity (a.u.).
For “GTTTAAGGACCGCTGATGCATTTTACTCTTTTATTTTCAACGGAGTCACCTAGTGCAG”, the binding signal was 9190 fluorescence intensity (a.u.).
“AAATGGGTGGTTGTCTCTCCCTCTCCTCCTTTCTTCTCCACGGAGTCACCTAGTGCAG”: the binding signal is 8780 fluorescence intensity (a.u.).
The result for “TAGATTAGTTTCACCGGTTCATCCACCTTAAGAATTTTTTCGGAGTCACCTAGTGCAG” reads 8170 fluorescence intensity (a.u.).
With “CGAACGGTCAAACATATTTAAAAAAGTCAACGACGTCAAACGGAGTCACCTAGTGCAG”, the binding signal is 8400 fluorescence intensity (a.u.).
